This is one part of the list. These are further read-outs of the screen, such as a control signal, another cell line or another target. No call is given for them. The list favours compounds with an active or inconclusive main result. Potencies come from curve fits of mixed quality, noted in brackets.
Assay: qHTS Assay for Lipid Storage Modulators in Drosophila S3 Cells;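 as to cell number change: cells counted by Cell Tracker Red CMTPX staining in the red channel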
Details: BODIPY lipid droplet fluorescence, 18-24 h; for cell number change: measured here: cell count max response, cells fed with added oleic acid
How it was run: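 Drosophila S3 cells got compounds at several concentrations plus oleic acid (400 uM solution). Laser-scanning cytometry with 488 nm excitation read lipid droplets at 500-530 nm and cells at 575-640 nm. Percent activity was relative to 20 uM Triacsin C.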

[1] = measured here: lipid fluorescence (Fed channel) AC50, cells fed with added oleic acid
[2] = measured here: cell number channel AC50, cells fed with added oleic acid

Row | SMILES | cell number change | AC50 [1] | AC50 [2]
1 | COc1ccc(C)cc1NC(=O)c1sc2nc(C)nc(N3CCOCC3)c2c1C | 12.8% | 5.17 µM [falling, single point] | 
2 | Cc1ccc(NC(=O)CSCC(=O)Nc2ccccc2C(=O)NC2CC2)cc1 | 21.2% |  | 
3 | CC(CNC(=O)c1ccco1)NC(=O)c1ccco1 (stereo unspecified) | 10.5% | 35.5 µM [falling, single point] | 
4 | COCCN(C(=O)c1ccc(-c2ccc(Cl)cc2)o1)c1c(N)n(CC(C)C)c(=O)[nH]c1=O | 26.1% | 32.6 µM [falling, single point] | 
5 | CCCC[C@]12Cc3ccccc3C(O1)c1c(cc(-c3ccccc3)oc1=O)O2 | -23.8% | 5.31 µM [falling, single point] | 
6 | COc1ccc(/C=N/NC(=O)c2ccc(COc3ccccc3Cl)o2)c(OC)c1C | -51.2% |  | 29.1 µM [falling, single point]
7 | CCOC(=O)c1ccc(NC(=S)NC(=O)c2cncc(Br)c2)cc1 |  | 4.61 µM [rising, partial curve] | 
8 | CCNc1nc(NCC)n2c(SCC(=O)Nc3ccccc3C(F)(F)F)nnc2n1 |  | 6.51 µM [rising, single point] | 
9 | Cc1cccc(-c2nc(S(=O)(=O)c3ccc(F)cc3)c(NCCCN3CCOCC3)o2)c1 | 22.6% | 6.51 µM [rising, single point] | 
10 | CCCCN(C)C(=S)Nc1ccc2nc(N3CCN(CC)CC3)cc(C)c2c1 | 21.3% |  | 
11 | COCCNC(=O)COCc1cc(-c2ccc3c(c2)OCO3)on1 | 33% | 29.1 µM [rising, single point] | 32.6 µM [rising, single point]
12 | Cc1ccccc1-n1nc2c(c1NC(=O)c1cc3ccccc3oc1=O)CS(=O)C2 (stereo unspecified) | -19.3% | 5.8 µM [rising, full curve, poor fit] | 
13 | O=C(N/N=C\c1cn[nH]c1-c1ccccc1)c1cccnc1 | 48.6% | 1.3 µM [rising, full curve, poor fit] | 10.3 µM [rising, partial curve]
14 | CCCC(=O)Nc1ccccc1-c1nnc(SC)[nH]c1=O | -11.9% | 4.11 µM [falling, full curve, poor fit] | 
15 | NS(=O)(=O)c1ccc(N/C=C\C(=O)c2ccc(F)cc2)cc1 | 14.4% |  | 
16 | COC(=O)C1=C(C)NC(=O)NC1C1CC=CCC1 (stereo unspecified) | 8.83% |  | 
17 | COc1ccc(NC2CCCN(C(=O)c3csc(C(C)C)n3)C2)cc1OC (stereo unspecified) | -38.1% |  | 32.6 µM [falling, single point]
18 | O=C(COC(=O)c1cc([N+](=O)[O-])ccc1N1CCOCC1)NC1CCS(=O)(=O)C1 (stereo unspecified) | -2.66% | 0.00461 µM [falling, full curve, poor fit] | 0.0461 µM [falling, full curve, poor fit]
19 | O=C(Nc1ccnc(-c2cccnc2)n1)c1ccc(F)cc1 | -12.7% | 13 µM [falling, partial curve, poor fit] | 
20 | CO/C=C/C#CC1(O)CCN(C)CC1 | -11.2% |  | 

Just cell number change, for some of the entries so far:
Row	SMILES	cell number change
2	Cc1ccc(NC(=O)CSCC(=O)Nc2ccccc2C(=O)NC2CC2)cc1	21.2%
3	CC(CNC(=O)c1ccco1)NC(=O)c1ccco1 (stereo unspecified)	10.5%

The listing continues:

Row | SMILES | cell number change | AC50 [1] | AC50 [2]
21 | CCC(=O)NC(Nc1sc2c(c1C(=O)OC)CCC2)C(Cl)(Cl)Cl (stereo unspecified) | 58.3% |  | 16.4 µM [rising, single point]
22 | COc1ccc2c(c1)c(C(C)=O)c(C)n2-c1ccc(C(C)=O)cc1 | -6.94% |  | 0.164 µM [falling, full curve, poor fit]
23 | COc1ccc(-c2cc(C(F)F)n3ncc(C(=O)NCCCN4CCCC4=O)c3n2)cc1 |  |  | 0.116 µM [rising, full curve, poor fit]
24 | N#Cc1ccccc1CSc1nc(N)cc(N)n1 | -11.1% |  | 
25 | O=C(Cn1nc(-c2ccc(Cl)cc2)c2ccccc2c1=O)Nc1cccnc1 | 2.01% | 2.59 µM [rising, partial curve] | 2.59 µM [rising, partial curve]
26 | CC(=O)c1c(C)[nH]c(C(=O)OCC(=O)N2CC(C)OC(C)C2)c1C (stereo unspecified) |  | 16.4 µM [rising, partial curve] | 
27 | COc1cccc(N(CC(=O)NC2CCCC2)C(=O)CCC(=O)Nc2cc(C)on2)c1 | -18.4% | 0.112 µM [rising, full curve, poor fit] | 
28 | COc1ccccc1OCCNc1ccc(S(=O)(=O)N2CCCC2)cn1 | 19% |  | 
29 | Cc1ccc(NC(=O)N2CCCc3ccccc32)cc1 | 32.9% |  | 10.3 µM [rising, partial curve, poor fit]
30 | COc1ccc(S(=O)(=O)N2CCC(C(=O)Nc3cc(Cl)ccc3N3CCOCC3)CC2)cc1OC |  | 3.26 µM [rising, single point] | 2.91 µM [rising, single point]
31 | O=C(Nc1cc(C(F)(F)F)ccc1N1CCCCC1)c1ccco1 | -8.02% | 1.16 µM [rising, full curve] | 
32 | CCCCC[C@H]1CN(C2CCCCC2)C(=O)[C@@H]1CC(=O)NCc1ccc(OC)cc1 | 9.71% | 2.59 µM [falling, partial curve] | 
33 | COc1ccc(NS(=O)(=O)c2ccc(C)c(C(=O)NCCCN3CCCC3=O)c2)cc1 | -32.3% | 29.1 µM [falling, single point] | 29.1 µM [falling, single point]
34 | Cc1ccc2c(c1)C(C)CC(C)(C)N2C(=O)NC1CCCCC1 (stereo unspecified) | -29.5% | 10.3 µM [falling, partial curve] | 3.66 µM [falling, full curve, poor fit]
35 | CNc1nc(SCC(=O)Nc2ccccc2)nc(N2CCOCC2)n1 | 43.8% | 29.1 µM [rising, single point] | 32.6 µM [rising, single point]
36 | Cc1[nH]cc(Br)c(=O)c1Oc1ncc(C(F)(F)F)cc1Cl | 33% |  | 
37 | CCN(CC)CCOC(=O)c1ccc(NC(=O)c2cn(-c3ccccc3)nc2-c2cccs2)cc1 | 19% |  | 
38 | CCn1ncc(Br)c1C(=O)NC1CCCCCCC1 | 17.6% | 29.1 µM [rising, single point] | 
39 | O=C(Nc1ccccc1Cl)N1CCN(c2ccc3nnc(-c4ccc(F)cc4)n3n2)CC1 | -20.1% |  | 

— PubChem BioAssay AID2685 (National Center for Advancing Translational Sciences (NCATS), 2010)
